# Library screening results

Sequences of proteins named here, by UniProt entry; tags and fusion partners are left off.
UniProt E9BF75, entry or part of it: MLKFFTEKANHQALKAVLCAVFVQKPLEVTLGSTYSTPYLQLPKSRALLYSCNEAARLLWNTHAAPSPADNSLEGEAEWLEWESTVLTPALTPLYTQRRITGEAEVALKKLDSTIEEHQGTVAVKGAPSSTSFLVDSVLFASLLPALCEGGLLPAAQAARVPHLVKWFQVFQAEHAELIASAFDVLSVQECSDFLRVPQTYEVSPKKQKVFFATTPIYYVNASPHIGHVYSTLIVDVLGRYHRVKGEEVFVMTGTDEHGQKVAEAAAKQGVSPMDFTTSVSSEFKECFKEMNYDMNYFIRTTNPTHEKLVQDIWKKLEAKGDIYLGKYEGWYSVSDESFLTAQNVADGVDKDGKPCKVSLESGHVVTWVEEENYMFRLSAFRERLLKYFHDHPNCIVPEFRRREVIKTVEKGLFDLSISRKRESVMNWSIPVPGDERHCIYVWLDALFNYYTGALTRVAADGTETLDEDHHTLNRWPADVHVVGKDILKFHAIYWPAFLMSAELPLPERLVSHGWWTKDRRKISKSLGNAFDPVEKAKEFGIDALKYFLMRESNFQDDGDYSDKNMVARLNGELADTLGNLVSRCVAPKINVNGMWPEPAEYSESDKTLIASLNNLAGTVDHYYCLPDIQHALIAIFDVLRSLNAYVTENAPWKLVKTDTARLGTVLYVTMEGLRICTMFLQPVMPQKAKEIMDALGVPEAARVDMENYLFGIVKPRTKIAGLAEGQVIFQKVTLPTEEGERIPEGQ

From ChEMBL document CHEMBL3988442, “University of Dundee, Small-Polar-MMV Screening Library” (2021).

A: 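Assay on Mycobacterium tuberculosis, filed only as a heat shock assay from Cornell; the read-out is not stated. The concentration is filed as 10 mM, unlikely as a test dose, so the dose is not known. Higher reads as stronger inhibition (inferred: compounds with an IC50 in retests scored well above the rest). About 69,000 compounds were tested under these conditions; 1.4% (about 930) showed 50% or more at least once.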
B: 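Whole-cell assay for inhibitors of Mycobacterium tuberculosis growth, labelled Cornell in the record; the read-out is not stated. The concentration is filed as 10 mM, unlikely as a test dose, so the dose is not known. The record gives no direction; compounds strong in two other growth screens of this library score well above the rest, so higher reads as stronger inhibition. About 53,000 compounds were tested under these conditions; 1.7% (about 900) showed 50% or more at least once.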
C: 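Methionyl-tRNA synthetase (putative), Leishmania donovani (UniProt E9BF75). Primary screen of methionyl-tRNA synthetase; the read-out is not stated. The test concentration is not given. The values are filed as inhibition. Of about 68,000 compounds tested this way, about 24 (0.035%) reached 50% or more in at least one test.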

Results are percentages, as filed.
How 0% and 100% were set is not recorded. Most values in the screen are low, and negative values occur.
The compounds are a random part of those screened.
A dash means the value is not listed here; it may have been measured.

| SMILES | A | B | C |
|---|---|---|---|
| `CCSCC(C)NCc1nncn1C1CCCCC1` (stereo not shown) | 16.88 | 25.04 | 10.62 |
| `Cc1cc(CNC(=O)C2CCCN2C(=O)OC(C)(C)C)no1` (stereo not shown) | 5.931 | -66.7 | 13.86 |
| `[H][C@@]12COC[C@H](C(=O)N3CCOCC3)[C@]1([H])CN(C1CCCC1)C2` | -9.673 | -26.69 | - |
| `CN1CSC[C@H]1C(=O)N1CCC(CCc2ccccc2)CC1` | -51.28 | - | 26.28 |
| `Cc1nc(CN2CCCC2c2noc(C3CC3)n2)oc1C` (stereo not shown) | 34.12 | - | 16.83 |
| `Cc1cc(C)c(CNC(=O)NCCNc2ncccn2)c(=O)[nH]1` | -3.419 | -26.25 | 17.63 |
| `O=C(O)C(F)(F)F.[H][C@@]12CCN(C(C)C)CC[C@]1([H])[C@H](COCC1CC1)CN(C)C2=O` | -20.83 | -35.63 | - |
| `Cc1ncnc2c1CCN(Cc1nccs1)CC2` | - | - | 16.06 |
| `CN(Cc1ccco1)[C@@H]1CN(Cc2ccccn2)C[C@@H]2CCCO[C@@H]21` | - | - | 3.922 |
| `CCNC(=O)CCN1CCCC1c1cccc2c1OCCO2` (stereo not shown) | -43.67 | -13.54 | 22.28 |
| `COc1ccc(CC(=O)N2CCCC(c3nncn3C)C2)cc1` (stereo not shown) | 15.82 | -11.63 | 15.46 |
| `CN(Cc1nccn1C)C(=O)C1COCC(=O)N1Cc1ccccc1` (stereo not shown) | -21.56 | -5.404 | 11 |
| `Cc1ccc(-c2cn(C3CCN(C(=O)[C@H]4CCCO4)CC3)nn2)cc1` | -13.41 | 16.43 | 14.29 |
| `CCn1cc(CN2CCCN(C(=O)c3ccn(C)c(=O)c3)CC2)cn1` | -12 | - | 9.028 |
| `NC(=O)c1ccc(N2CCCCC2)c(NC(=O)c2cc(F)ccc2F)c1` | 0.08488 | - | 28.57 |
| `O=C(Cc1ccccc1Cl)Nc1cnn(C2CCOC2)c1` (stereo not shown) | -6.478 | -15.05 | 5.915 |
| `CCC(CN1CCCCC1)NC(=O)C1(c2cccc(F)c2)CC1.O=C(O)CC(O)(CC(=O)O)C(=O)O` (stereo not shown) | -3.211 | 45.73 | - |
| `CCCN(CC(=O)N(C)C)C(=O)c1ccc(-c2nc(C)cs2)cc1` | 15.75 | 6.261 | 16.51 |
| `Cc1c2ncn(CC(=O)N(C)C)c(=O)c2nn1C` | -19.62 | - | 4.511 |
| `O=C(O)C(F)(F)F.O=C(O)C(F)(F)F.[H][C@@]12OCCN(Cc3ccsc3)[C@@]1([H])CC[C@H]2OCc1cccc(C)n1` | 13.17 | 24.09 | - |
| `COc1ccccc1CC(=O)N1CCCC(CNS(C)(=O)=O)C1` (stereo not shown) | 25.32 | - | 11.58 |
| `CCCc1noc(C(C)N(CC)Cc2ccco2)n1` (stereo not shown) | -5.649 | 4.033 | -1.805 |
| `CC(C)c1ccc(CNC(C)c2ccc(S(=O)(=O)N(C)C)cc2)cc1` (stereo not shown) | 1.436 | - | 16.43 |
| `NC(=O)c1ccc(CNC2CCCSC2)cc1` (stereo not shown) | -10.83 | 21.18 | 12.53 |
| `CN(C)C(=O)COCc1cncc2c1CCN(C1CCOCC1)C2` | - | - | 12.02 |
| `CC(C)c1cc(NC(=O)CNC2CCc3ncnn3C2)on1` (stereo not shown) | -4.672 | 32.81 | 12.59 |
| `COc1ccccc1CN1CCC(c2nccc(C)n2)C1` (stereo not shown) | -9.21 | 21.73 | 17.44 |
| `Cc1nc(N(C)C)nc(C)c1NC(=O)c1ccccc1F` | 12.32 | 4.131 | 13.24 |
| `Cn1nc(CN2CCCC2)c2c1CN(C(=O)c1cnccn1)CC2` | 11.57 | 10.27 | 12.33 |
| `COCC(=O)N1CCN(S(=O)(=O)c2ccccc2)[C@@H](C(=O)OC)C1` | -2.458 | - | 12.09 |
| `COc1cccc(N2CCN(C(=O)CN(C)c3cnccn3)CC2)c1` | -36.17 | - | 11.11 |
| `CCN1CC2(CCC1=O)CCN(C(=O)c1ccc(C)cc1O)CC2` | 7.034 | -55.45 | 15.01 |
| `[H][C@@]12C[C@@H](Oc3cncnc3)CN1CCN(C(=O)c1ccc(C)nc1)C2` | 5.803 | 11.09 | - |
| `COC(=O)CN1CC(c2nc(Cc3ccccc3)no2)C1` | - | - | 13.3 |
| `O=C(O)C(F)(F)F.O=C([C@H]1CCCO1)N1CCCC2(CCN(Cc3ccncc3)C2=O)C1` (stereo partly shown) | -9.273 | -32.98 | - |
| `COCC1c2c(cnn2CC2CC2)CCN1Cc1cccs1.O=C(O)C(F)(F)F.O=C(O)C(F)(F)F` (stereo not shown) | 4.657 | 16.21 | - |
| `O=C(O)C(F)(F)F.[H][C@]12CCC[C@@]1(COCc1ccccn1)CN(C(=O)N1CCCC1)C2` | 29.24 | -2.718 | - |
| `[H][C@]12CN(c3ncc(F)cn3)C[C@@]1([H])S(=O)(=O)CC[C@@H]2C(=O)N(C)C` | -16.17 | -21.12 | - |
| `Cc1ccc(CN2CCC3(CCCC(=O)N3)CC2)s1` | - | - | 12.22 |
| `Cc1nc(CN2Cc3nccn3CC(COCC3CC3)C2)cs1.O=C(O)C(F)(F)F` (stereo not shown) | -20.46 | 3.909 | - |
| `COc1ccc2c(c1)NC(C1CCN(C(=O)C(C)C)CC1)NS2(=O)=O` (stereo not shown) | -0.191 | 1.518 | 11.7 |
| `Cc1nc(NCC(O)CN2CCCCCC2)c2c(C)noc2n1` (stereo not shown) | 9.547 | -71.41 | 22.99 |
| `O=C(c1sccc1-n1cnnn1)N1CCC(Cc2ccccc2)CC1` | -33.59 | 28.81 | -2.326 |
| `CC1CCCCN1CCNC(=O)c1ccn(-c2cccc(F)c2)n1` (stereo not shown) | 4.13 | - | 10.12 |
| `O=C(COc1ccccc1)N1CCCC1c1ccc[nH]1` (stereo not shown) | -7.147 | 85.82 | 13.24 |
| `COc1cc(N2C[C@H]3CCC[C@@H](CN4CCCC4)[C@H]3C2)ncn1` | - | - | 12.67 |
| `Cc1cc(NCCN)nc(-c2ccccc2O)n1` | 74.35 | 5.897 | 3.432 |
| `CNc1nc(CNC(=O)Nc2cc(Cl)ccc2F)cs1` | 16.36 | - | 10.93 |
| `Cn1cc(CN2CCn3cc(Cn4cccn4)nc3C2)cn1.O=C(O)C(F)(F)F` | -24.1 | -21.1 | - |
| `CN(C)CCNC(=O)C1Cc2nc(-c3ccccc3)sc2N1CC1CC1` (stereo not shown) | - | - | 5.205 |
| `CN1CC2(CCN(C(=O)CCCOCc3ccccc3)C2)OC1=O` (stereo not shown) | 11.87 | 22.38 | 13.33 |
| `CC(NC(=O)NCCCn1cccn1)c1ccc2c(c1)NC(=O)CO2` (stereo not shown) | 0.1898 | -16.69 | 7.981 |
| `COCCN1CCN(Cc2ccc3nsnc3c2)[C@H]2CS(=O)(=O)C[C@H]21` | - | - | 13.19 |
| `COc1c(CNCCNC(=O)c2ccc(C)c(F)c2)c(C)nn1C` | -8.52 | - | 16.76 |
| `CN1CCCCC1c1ncc2c(n1)CCN(Cc1ccc(Cl)c(F)c1)C2` (stereo not shown) | 103.7 | 4.088 | 28.48 |
| `O=C(C[S+]([O-])Cc1ccc(F)cc1Cl)N1CCc2sccc2C1` (stereo not shown) | -32.41 | - | 7.519 |
| `Cc1cc(C[C@@H]2COC[C@H]2NCc2ccc(Br)s2)on1.O=C(O)CC(O)(CC(=O)O)C(=O)O` | 3.628 | -1.625 | - |
| `Cc1cnn(CC(C)NCC(=O)Nc2ccc(Cl)cn2)c1` (stereo not shown) | 1.298 | - | 11.34 |
| `CCS(=O)(=O)c1ccccc1N1CCC(NC(=O)C2CC2)CC1` | -17.99 | - | 18.99 |
| `CCOc1nnc(CN(C)C2CCCN(c3ccc(C)nn3)C2)s1` (stereo not shown) | 27.99 | 16.78 | 27.04 |
| `Cc1cccc(C)c1-c1cc(NCCO)nc2[nH]ccc12` | 2.509 | 14.43 | -0.361 |
| `CC(C)NC(=O)N1CCC2(CC1)CN(C(=O)NC(C)C)CCO2` | -10.25 | - | 14.86 |
| `CN(C)C(=O)NCc1cc(=O)n2c(n1)CN(Cc1ccoc1)CCC2.O=C(O)C(F)(F)F` | -8.595 | -30.94 | - |
| `CCS(=O)(=O)N1C[C@@H](c2ccccc2)[C@@]2(CCNC2=O)C1` | 41.27 | -15.47 | 4.134 |
| `Cc1noc(C)c1CN1CCc2ncnc(-c3cnn(C)c3)c2CC1.O=C(O)C(F)(F)F` | 18.85 | -9.156 | - |
| `CNc1nc(CNC(=O)Nc2ccc([S+](C)[O-])c(F)c2)cs1` (stereo not shown) | -1.69 | - | 13.02 |
| `CC(C)c1nc(CSc2nnc(-c3cccs3)n2CC(N)=O)no1` | 87.51 | 31.27 | 14.97 |
| `Cc1nnc(CN(C)CC(=O)NC(C)(C)c2ccc(F)cc2)n1C` | 3.905 | 14.31 | 16.8 |
| `COc1cccc(CNC(C)c2ccc(-n3ccnc3)cc2)c1OC.Cl` (stereo not shown) | -45.2 | 4.03 | - |
| `O=C(NCCc1nnc2n1CCC2)NCC1(c2ccc(F)cc2)CC1` | -15.76 | - | 12.14 |
| `Cc1cccc2c1C(=O)NC1(CCOCC1)N2` | -16.67 | 17.55 | 13.64 |
| `Cn1cccc1CNCc1nnc2n1CCCC2C(F)(F)F` (stereo not shown) | 12.34 | 27 | 15.84 |
| `CNc1nc(CNC(=O)Nc2cccc(C)c2Cl)cs1` | 47.79 | - | 14.21 |
| `Cc1nc(CN2CCOCC23CCN(c2ccc(C#N)cc2)CC3)cs1` | - | - | 14.13 |

The last 6 entries again:

SMILES,A,B,C
COc1cccc(CNC(C)c2ccc(-n3ccnc3)cc2)c1OC.Cl (stereo not shown),-45.2,4.03,-
O=C(NCCc1nnc2n1CCC2)NCC1(c2ccc(F)cc2)CC1,-15.76,-,12.14
Cc1cccc2c1C(=O)NC1(CCOCC1)N2,-16.67,17.55,13.64
Cn1cccc1CNCc1nnc2n1CCCC2C(F)(F)F (stereo not shown),12.34,27,15.84
CNc1nc(CNC(=O)Nc2cccc(C)c2Cl)cs1,47.79,-,14.21
Cc1nc(CN2CCOCC23CCN(c2ccc(C#N)cc2)CC3)cs1,-,-,14.13